Results are given in words; binding and its absence hold for the method and conditions named. Some binding calls cover weakened binding; strength is not graded here.
Target: RSV A2 F trimers (F open reading frame fused to isoleucine zipper domain followed by 8 HIS repeats, ILZ-8x HIS) (Respiratory Syncytial Virus A2) (UniProt P03420)
Test: intracellular staining of 293T cells transfected with the ILZ-8x HIS F construct

B1: AM22 (recombinant AM22 mAb, human IgG1/Kappa) (antibody, V domains shown)
VH: QVQLVQSGAEVKKPGATVKVSCKISGHTLIKLSIHWVRQAPGKGLEWMGGYEGEVDEIFYAQKFQHRLTVIADTATDTVYMELGRLTSDDTAVYFCGTLGVTVTEAGLGIDDYWGQGTLVTVSS
VL: EIVLTQSPGTLSLSPGERATLSCRASQIVSRNHLAWYQQKPGQAPRLLIFGASSRATGIPVRFSGSGSGTDFTLTINGLAPEDFAVYYCLSSDSSIFTFGPGTKVDFK
notes: also called AM22 antibody; AM22 monoclonal antibody
B1 was tested, and the binding was “binds”.

— patent US20120070446A1 (AstraZeneca / MedImmune, published 2012)
